Among the data in doi:10.1101/2022.03.22.485398 are binding values, retold here.

No constants are given. Whether binding was seen depends on the method and setting. In cells and extracts the contact can be indirect. Some results given as binding are weak or reduced against the parent protein; the word gives no strength. Where a sequence is shown, tags or fusion partners need not be part of it.

This test addresses T1, 9B:nLUC (pro35S::9B:nLUC) (Arabidopsis) (UniProt Q9SL49).
T1 sequence: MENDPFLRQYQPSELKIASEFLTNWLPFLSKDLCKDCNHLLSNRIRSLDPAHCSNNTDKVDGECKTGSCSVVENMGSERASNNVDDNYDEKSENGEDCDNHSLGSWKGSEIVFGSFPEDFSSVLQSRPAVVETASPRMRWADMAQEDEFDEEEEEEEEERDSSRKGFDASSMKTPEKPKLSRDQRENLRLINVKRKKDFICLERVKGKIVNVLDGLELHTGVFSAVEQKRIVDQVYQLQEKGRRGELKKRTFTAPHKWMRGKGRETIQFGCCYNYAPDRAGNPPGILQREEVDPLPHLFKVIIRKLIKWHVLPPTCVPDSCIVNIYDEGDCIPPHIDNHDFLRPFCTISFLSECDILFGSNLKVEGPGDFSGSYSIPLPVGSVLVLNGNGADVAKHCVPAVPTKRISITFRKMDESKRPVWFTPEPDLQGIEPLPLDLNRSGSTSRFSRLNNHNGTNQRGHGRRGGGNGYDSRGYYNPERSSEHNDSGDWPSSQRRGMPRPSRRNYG
Kind of test: split reporter.

B1: cLUC:ECT2 (pro35S::cLUC:ECT2) (protein, UniProt Q9LJE5 1-667)
chain: MATVAPPADQATDLLQKLSLDSPAKASEIPEPNKKTAVYQYGGVDVHGQVPSYDRSLTPMLPSDAADPSVCYVPNPYNPYQYYNVYGSGQEWTDYPAYTNPEGVDMNSGIYGENGTVVYPQGYGYAAYPYSPATSPAPQLGGEGQLYGAQQYQYPNYFPNSGPYASSVATPTQPDLSANKPAGVKTLPADSNNVASAAGITKGSNGSAPVKPTNQATLNTSSNLYGMGAPGGGLAAGYQDPRYAYEGYYAPVPWHDGSKYSDVQRPVSGSGVASSYSKSSTVPSSRNQNYRSNSHYTSVHQPSSVTGYGTAQGYYNRMYQNKLYGQYGSTGRSALGYGSSGYDSRTNGRGWAATDNKYRSWGRGNSYYYGNENNVDGLNELNRGPRAKGTKNQKGNLDDSLEVKEQTGESNVTEVGEADNTCVVPDREQYNKEDFPVDYANAMFFIIKSYSEDDVHKSIKYNVWASTPNGNKKLAAAYQEAQQKAGGCPIFLFFSVNASGQFVGLAEMTGPVDFNTNVEYWQQDKWTGSFPLKWHIVKDVPNSLLKHITLENNENKPVTNSRDTQEVKLEQGLKIVKIFKEHSSKTCILDDFSFYEVRQKTILEKKAKQTQKQVSEEKVTDEKKESATAESASKESPAAVQTSSDVKVAENGSVAKPVTGDVVANGC
In the case of B1, the binding entry is listed as “binds”.
